This note sets out measurements from US20220175682A1, “Siremadlin Succinate” (Novartis AG, priority 2019, published 2022).

Data set [1] can be described thus: Direct encapsulation of neat API on vacuum drum filler equipment (filler type not specified).
Data set [2] in a line: Capsule filling of neat API on sonic filler vacuum drum. The settings on record: two filling DoE, over the dose range, no sieving.

`CC1(N)CCN(c2cccnc2NC(=O)c2nc(-c3ncccc3C(F)(F)F)cnc2N)CC1` [5. LXS196, reference compound]: the “percentage of good capsules of the total number of produced capsules” value in data set [1] (throughput superior than 40,000 capsules within 6 hours) amounted to 98.8%.

In the case of `CCC(=O)N1CC[C@H](Nc2ncnc3c2CN(c2cnc(OC)c(C(F)(F)F)c2)CC3)C1` [6. CDZ173, reference compound], in data set [1] (listed as Line 6), the “fillability with the processing method” value is “borderline fillable”. Take `CCC(=O)N1CC[C@H](Nc2ncnc3c2CN(c2cnc(OC)c(C(F)(F)F)c2)CC3)C1` [7. CDZ173, reference compound]: in data set [1] (listed as line 7), the “fillability with the processing method” value is on record as “not fillable”. On to `COc1ncc(-c2nc3c(n2C(C)C)[C@H](c2ccc(Cl)cc2)N(c2cc(Cl)cn(C)c2=O)C3=O)c(OC)n1.O=C(O)CCC(=O)O` [Batch A1], for which, in data set [2], the “filling RSD” value is given as 0.92-2.58%.
